Measurements: PubChem BioAssay AID1487 (National Center for Advancing Translational Sciences (NCATS), 2009)
The other results are listed elsewhere or left out. These are further read-outs of the screen, such as a control signal, another cell line or another target. No call is given for them. The list favours compounds with an active or inconclusive main result. The note in brackets gives the kind of curve behind each potency; many fits are weak.

Assay: qHTS Assay for Modulators of Lamin A Splicing
Conditions: HeLa LMNA splicing GFP/RFP minigene ratio, 48 h
Summary of the method: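 S3 HeLa stable clones carrying a lamin A-EGFP splicing minigene plus DsRed2 were seeded at 600 cells/well in Opti-MEM with 2% FBS, pin-dosed and incubated 48 h at 37°C. Acumen cytometry (488 nm) gave the GFP/RFP total-intensity ratio.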

[1] = measured here: GFP splicing reporter channel
[2] = measured here: RFP viability control channel

| Compound | AC50 [1] | AC50 [2] |
| --- | --- | --- |
| Cn1c(C(=O)NCCCN2CCCCC2)cc2sccc21 | 1.41 µM [rising, partial curve] | – |
| CCOc1ccc(OCC)c(NS(=O)(=O)c2c(C(=O)N3CCCCCC3)c(C)n(C)c2C)c1 | 6.31 µM [falling, partial curve, poor fit] | 3.16 µM [falling, partial curve, poor fit] |
| Cc1ccc(NC(=O)N2CCN(c3nnc(C)c4c(C)n(-c5ccccc5)nc34)CC2)cc1Cl | 1 µM [falling, partial curve, poor fit] | 0.224 µM [falling, full curve, poor fit] |
| CCOCCCn1c(SCC(=O)Nc2cccc(OC)c2)nc2ccccc2c1=O | – | 1.78 µM [falling, full curve, poor fit] |
| Nc1ccc(N2CCN(c3cccc(Cl)c3)CC2)cc1 | – | 8.91 µM [rising, partial curve] |
| CN(C)C/C=C(/c1ccc(Br)cc1)c1cccnc1 | 5.62 µM [rising, single point] | – |
| CCC(CC)=NNC(=O)c1ccccc1OCc1ccc(F)cc1 | – | 25.1 µM [rising, single point] |
| O=C(Nc1cccc(S(=O)(=O)Nc2ccccc2Cl)c1)c1ccc(Cl)nc1 | 0.0316 µM [rising, full curve, poor fit] | 1.58 µM [rising, full curve] |
| COC(=O)Nc1ccc(S(=O)(=O)N2CCCc3ccccc32)cc1 | – | 0.794 µM [rising, full curve] |
| Cc1ccc(NC(=O)CN(C)C(=O)CSc2nc3ccccc3c(=O)n2Cc2ccco2)cc1 | 31.6 µM [rising, single point] | – |
| Cc1cc(N)ccc1-n1c(C)ccc1C | – | 3.98 µM [falling, partial curve] |
| CCN(c1ccc(Cl)cc1)S(=O)(=O)c1nnc(NC(=O)C2CCCCC2)s1 | 0.00447 µM [falling, full curve, poor fit] | – |
| CNc1oc(Cc2ccccc2)nc1S(=O)(=O)c1ccc(Cl)cc1 | – | 1.41 µM [falling, partial curve] |
| CC(=O)c1ccc(N2CCN(C(=S)Nc3ccc(Oc4ccccc4)cc3)CC2)cc1 | 10 µM [falling, partial curve] | – |
| COc1ccc(CN(C(=S)Nc2ccccc2)C2CC(=O)N(c3ccc(F)cc3)C2=O)cc1 (stereo not given) | 31.6 µM [rising, single point] | 31.6 µM [rising, single point] |
| CN(C)S(=O)(=O)c1ccc(NC(=O)CSc2ncnc3ccccc23)cc1 | – | 14.1 µM [rising, partial curve] |

Whole records from above:
`CCN(c1ccc(Cl)cc1)S(=O)(=O)c1nnc(NC(=O)C2CCCCC2)s1` is entered as AC50 [1]: 0.00447 µM [falling, full curve, poor fit]
`CNc1oc(Cc2ccccc2)nc1S(=O)(=O)c1ccc(Cl)cc1` is entered as AC50 [2]: 1.41 µM [falling, partial curve]
